PMC8041284, “Tunable Methacrylamides for Covalent Ligand Directed Release Chemistry” (Journal of the American Chemical Society, 2021)

Assay: GSH reactivity assay for model compounds (LC/MS)
Type: physicochemical
Details: 5 mM GSH, 100 μM acrylamide, 37 °C

For `C=C(COC(=O)Oc1ccc([N+](=O)[O-])cc1)C(=O)NCc1ccccc1` [1m], the “Substitution/Addition (reaction type with GSH)” value was “preferably underwent the substitution reaction”.
